Values from PubChem BioAssay AID504808 (Drosophila RNAi Screening Center, 2011)

Assay: 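Fly genes required to hold E2F transcription in check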 (primary screen)
Cell system: Drosophila S2 cells
Reagent: long dsRNA against Drosophila genes
Measured: 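Dual luciferase plate measurements; E2F-specific signal taken as firefly over Renilla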
Reading the numbers: E2F firefly: higher = more E2F reporter activity; Renilla normaliser: higher = more normaliser reporter signal
Call rule: 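Called active if the normalised E2F reporter went up by over 50%; the cutoff is arbitrary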
The screen tested about 21,000 reagents; this is an unselected part of those that have a named target and a result. Over the whole deposit, 18 (0.084%) got an active call. 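Raw counts without plate normalisation, one of two replicates; the ratio scores behind the calls were not deposited.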 A number with no mark means an inactive call. Not stated in the record: the amount of reagent, the time to read-out.

TyrRS-m — E2F firefly, rep 1 = 89341; Renilla normaliser, rep 1 = 184
HisRS — E2F firefly, rep 1 = 1.44e5; Renilla normaliser, rep 1 = 5519
pr — E2F firefly, rep 1 = 78095; Renilla normaliser, rep 1 = 3409
CG31848 — E2F firefly, rep 1 = 97531; Renilla normaliser, rep 1 = 6240
GstE13 — E2F firefly, rep 1 = 3103; Renilla normaliser, rep 1 = 202
ple — E2F firefly, rep 1 = 85925; Renilla normaliser, rep 1 = 3992
CG10510 — E2F firefly, rep 1 = 77325; Renilla normaliser, rep 1 = 3638

A run of entries from the list above, as a working copy:
pr — E2F firefly, rep 1 = 78095; Renilla normaliser, rep 1 = 3409
CG31848 — E2F firefly, rep 1 = 97531; Renilla normaliser, rep 1 = 6240

Further reagents follow.
CG6225 — E2F firefly, rep 1 = 1.48e5; Renilla normaliser, rep 1 = 6270
CSN6 — E2F firefly, rep 1 = 82934; Renilla normaliser, rep 1 = 5371
CG7130 — E2F firefly, rep 1 = 1.33e5; Renilla normaliser, rep 1 = 6857
Pig1 — E2F firefly, rep 1 = 1.04e5; Renilla normaliser, rep 1 = 5830
DMAP1 — E2F firefly, rep 1 = 86861; Renilla normaliser, rep 1 = 3659
